Laboratory results from paper PMC7652414.
No constants are given. Whether binding was seen depends on the method and setting. In cells and extracts the contact can be indirect. Some entries that bind do so weakly or less than the wild type. For some of these results: Where a sequence is shown, tags or fusion partners need not be part of it.

Amino acid sequences for entries named in this document (tags omitted).
UniProt Q9Y496: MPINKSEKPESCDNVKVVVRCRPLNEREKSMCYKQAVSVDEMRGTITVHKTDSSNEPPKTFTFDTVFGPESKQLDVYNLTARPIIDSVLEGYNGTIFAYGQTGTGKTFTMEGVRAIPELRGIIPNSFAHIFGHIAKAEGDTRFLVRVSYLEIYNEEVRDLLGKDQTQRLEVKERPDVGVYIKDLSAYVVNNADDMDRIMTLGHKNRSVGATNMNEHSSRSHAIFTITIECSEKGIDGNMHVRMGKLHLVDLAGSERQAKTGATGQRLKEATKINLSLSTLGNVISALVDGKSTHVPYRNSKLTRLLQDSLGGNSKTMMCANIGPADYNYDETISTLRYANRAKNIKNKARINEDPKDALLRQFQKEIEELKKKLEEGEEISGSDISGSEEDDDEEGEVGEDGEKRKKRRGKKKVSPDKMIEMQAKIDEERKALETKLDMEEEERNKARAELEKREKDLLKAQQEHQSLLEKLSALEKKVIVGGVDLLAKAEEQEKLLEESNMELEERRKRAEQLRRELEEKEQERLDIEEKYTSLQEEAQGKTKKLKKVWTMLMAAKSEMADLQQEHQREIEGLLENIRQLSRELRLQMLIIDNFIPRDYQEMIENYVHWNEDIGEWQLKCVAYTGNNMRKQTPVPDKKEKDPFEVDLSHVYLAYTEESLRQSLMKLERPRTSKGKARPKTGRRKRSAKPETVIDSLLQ

T1: FLA10 (FLA10-GFP and FLA10-MBP co-expressed in HEK293T) (Chlamydomonas reinhardtii) (UniProt P46869)
T1 sequence: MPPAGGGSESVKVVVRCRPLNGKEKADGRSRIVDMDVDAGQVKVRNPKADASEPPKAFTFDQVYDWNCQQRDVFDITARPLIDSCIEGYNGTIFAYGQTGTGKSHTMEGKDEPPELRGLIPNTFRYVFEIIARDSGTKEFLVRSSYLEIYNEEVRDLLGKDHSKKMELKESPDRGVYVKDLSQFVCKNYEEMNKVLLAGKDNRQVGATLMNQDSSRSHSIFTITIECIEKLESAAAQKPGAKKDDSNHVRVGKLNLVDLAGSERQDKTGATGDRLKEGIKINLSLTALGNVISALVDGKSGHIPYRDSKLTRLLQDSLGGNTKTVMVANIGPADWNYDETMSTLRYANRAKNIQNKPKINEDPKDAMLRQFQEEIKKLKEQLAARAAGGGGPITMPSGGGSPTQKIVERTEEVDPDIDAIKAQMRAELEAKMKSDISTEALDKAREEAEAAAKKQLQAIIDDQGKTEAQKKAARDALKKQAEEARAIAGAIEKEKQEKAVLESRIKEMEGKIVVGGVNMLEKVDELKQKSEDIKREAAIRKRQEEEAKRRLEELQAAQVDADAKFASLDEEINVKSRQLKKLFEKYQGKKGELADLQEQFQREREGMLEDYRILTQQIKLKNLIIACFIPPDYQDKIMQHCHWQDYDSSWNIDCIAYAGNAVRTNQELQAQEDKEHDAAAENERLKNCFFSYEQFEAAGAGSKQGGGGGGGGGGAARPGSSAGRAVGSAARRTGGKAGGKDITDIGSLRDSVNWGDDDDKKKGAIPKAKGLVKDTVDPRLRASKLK

T2: FLA8 (FLA8-GFP and FLA8-MBP co-expressed in HEK293T) (Chlamydomonas reinhardtii) (UniProt A7LGV1)
T2 sequence: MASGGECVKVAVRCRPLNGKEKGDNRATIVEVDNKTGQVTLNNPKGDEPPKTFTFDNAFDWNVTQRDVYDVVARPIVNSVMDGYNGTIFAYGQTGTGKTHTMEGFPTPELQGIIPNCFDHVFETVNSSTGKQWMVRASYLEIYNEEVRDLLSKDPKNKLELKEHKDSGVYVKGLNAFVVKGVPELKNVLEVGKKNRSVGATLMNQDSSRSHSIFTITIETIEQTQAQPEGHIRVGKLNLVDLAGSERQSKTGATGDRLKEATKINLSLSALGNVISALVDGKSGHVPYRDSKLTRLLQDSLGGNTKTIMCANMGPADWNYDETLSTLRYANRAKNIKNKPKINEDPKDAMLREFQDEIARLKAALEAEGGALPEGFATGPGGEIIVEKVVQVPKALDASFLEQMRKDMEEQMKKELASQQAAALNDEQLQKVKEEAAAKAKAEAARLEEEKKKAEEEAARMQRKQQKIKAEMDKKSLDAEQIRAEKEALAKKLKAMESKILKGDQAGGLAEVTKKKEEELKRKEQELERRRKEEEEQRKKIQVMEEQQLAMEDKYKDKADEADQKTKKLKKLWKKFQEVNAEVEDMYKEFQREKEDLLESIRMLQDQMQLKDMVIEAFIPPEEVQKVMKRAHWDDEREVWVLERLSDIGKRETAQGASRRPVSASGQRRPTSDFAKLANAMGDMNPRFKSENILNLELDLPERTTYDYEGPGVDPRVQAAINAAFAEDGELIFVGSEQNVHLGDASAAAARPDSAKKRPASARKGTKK

B1: FLA10 (FLA10-GFP and FLA10-MBP co-expressed in HEK293T) (protein, UniProt P46869 1-786)
chain: T1 sequence
B2: FLA8 (FLA8-GFP and FLA8-MBP co-expressed in HEK293T) (protein, UniProt A7LGV1 1-768)
chain: T2 sequence
B3: KIF3B-RFP (protein, UniProt O15066 1-747)
chain: MSKLKSSESVRVVVRCRPMNGKEKAASYDKVVDVDVKLGQVSVKNPKGTAHEMPKTFTFDAVYDWNAKQFELYDETFRPLVDSVLQGFNGTIFAYGQTGTGKTYTMEGIRGDPEKRGVIPNSFDHIFTHISRSQNQQYLVRASYLEIYQEEIRDLLSKDQTKRLELKERPDTGVYVKDLSSFVTKSVKEIEHVMNVGNQNRSVGATNMNEHSSRSHAIFVITIECSEVGLDGENHIRVGKLNLVDLAGSERQAKTGAQGERLKEATKINLSLSALGNVISALVDGKSTHIPYRDSKLTRLLQDSLGGNAKTVMVANVGPASYNVEETLTTLRYANRAKNIKNKPRVNEDPKDALLREFQEEIARLKAQLEKRSIGRRKRREKRREGGGSGGGGEEEEEEGEEGEEEGDDKDDYWREQQEKLEIEKRAIVEDHSLVAEEKMRLLKEKEKKMEDLRREKDAAEMLGAKIKAMESKLLVGGKNIVDHTNEQQKILEQKRQEIAEQKRREREIQQQMESRDEETLELKETYSSLQQEVDIKTKKLKKLFSKLQAVKAEIHDLQEEHIKERQELEQTQNELTRELKLKHLIIENFIPLEEKSKIMNRAFFDEEEDHWKLHPITRLENQQMMKRPVSAVGYKRPLSQHARMSMMIRPEARYRAENIVLLELDMPSRTTRDYEGPAIAPKVQAALDAALQDEDEIQVDASSFESTANKKSKARPKSGRKSGSSSSSSGTPASQLYPQSRGLVPK
B4: FLA8 (pCMV-FLA8, expressed in HEK293T) (protein, UniProt A7LGV1 1-768)
chain: T2 sequence
B5: FLA10 (pCMV-FLA10, expressed in HEK293T) (protein, UniProt P46869 1-786)
chain: T1 sequence

Key:
[1] = biological target: T1, FLA10 (FLA10-GFP and FLA10-MBP co-expressed in HEK293T) (Chlamydomonas reinhardtii); test: co-IP; GFP- and MBP-tagged copies co-expressed in HEK293T (48 hr; also with 7.5-fold less plasmid DNA); lysis buffer PBS pH 7.4, 150 mM KCl, 1 mM MgCl2, 1 mM EGTA, 0.1 mM ATP, 0.5% NP-40; anti-GFP beads, 4°C, 2 hr; immunoblot with GFP and MBP antibodies
[2] = biological target: T1, FLA10 (FLA10-GFP and FLA10-MBP co-expressed in HEK293T) (Chlamydomonas reinhardtii); test: co-IP; as a1, HEK293T co-expressing the GFP- and MBP-tagged copies alone or including the other motor subunit and KAP; anti-GFP immunoprecipitation, immunoblot
[3] = biological target: T2, FLA8 (FLA8-GFP and FLA8-MBP co-expressed in HEK293T) (Chlamydomonas reinhardtii); test: co-IP; GFP- and MBP-tagged copies co-expressed in HEK293T (48 hr; also with 7.5-fold less plasmid DNA); lysis buffer PBS pH 7.4, 150 mM KCl, 1 mM MgCl2, 1 mM EGTA, 0.1 mM ATP, 0.5% NP-40; anti-GFP beads, 4°C, 2 hr; immunoblot with GFP and MBP antibodies
[4] = biological target: T2, FLA8 (FLA8-GFP and FLA8-MBP co-expressed in HEK293T) (Chlamydomonas reinhardtii); test: co-IP; as a1, HEK293T co-expressing the GFP- and MBP-tagged copies alone or including the other motor subunit and KAP; anti-GFP immunoprecipitation, immunoblot
KIF3A-MBP (human) = KIF3A-MBP (human) (UniProt Q9Y496); test: pull-down; HsKinesin-II subunits co-expressed in Sf9, co-purified using Ni column and MBP column successively; SDS-PAGE with Coomassie staining or immunoblotting with antibodies against KIF3A, KIF3B or KAP3

Binder | binding [2] | binding [4] | further results
B1 | binds | – | binding [1]: binds
B2 | – | binds | binding [3]: binds
B3 | – | – | binding (KIF3A-MBP (human)): binds
B4 | binds | – | –
B5 | – | binds | –
